# Reference: PubChem BioAssay AID504648 (National Center for Advancing Translational Sciences (NCATS), 2011)
# In all, about 390,000 compounds went through this assay and about 610 (0.16%) were called active. This list was built around the results that the source calls inconclusive (neither active nor inactive); the mix of calls is not that of the screen. Calls follow the shape of the dose curve; as a rule, active = well fitted inhibition curve with a large enough effect; inconclusive = small, poorly fitted or top-dose-only effect, or effect the other way, or another doubt; inactive = no such curve, though single readings can be large or run the other way. A potency beside an inconclusive call is a rough fit, not a confirmed value.
# Test: Nrf2 qHTS screen for inhibitors: counterscreen for cytotoxicity
# Conditions: A549 ARE-Fluc cells, CellTiter-Fluor viability, 18-24 h; activity change, negative = cytotoxicity: at 46 µM (top of the series)
# Summary of the method: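 A549 ARE-Fluc cells in 5% FBS OPTI-MEM, 5000 cells/well, rested 2 h then exposed to compounds in concentration-response for 18-24 h at 37 °C. Viability by CellTiter-Fluor fluorescence (Ex 405/Em 525) after 30 min; luciferase luminescence (BugLite, 15 min, RT) read afterwards.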
# % is scaled to controls: 0 for no effect and ±100 for the full control effect; potency is read from the fitted curve at half-maximal effect.
Compound,Potency,"activity change, negative = cytotoxicity"
CSc1ccccc1NC(=O)CN(Cc1ccccc1)S(C)(=O)=O,"inconclusive: 32.6 µM [activator, partial curve, poor fit]",–
Nc1nnc(-c2ccc([N+](=O)[O-])o2)s1,"inconclusive: 20.6 µM [falling, single point]",–
Nc1nn(-c2ccccc2)c(N)c1N=Nc1ccc2c(c1)OCO2,active: 14.6 µM,–
CN(Cc1ccccc1)C(=O)c1ccccc1C(=O)OCC(=O)N(Cc1ccccc1)C(C)(C)C,"inconclusive: 14.6 µM [falling, partial curve, poor fit]",–
CC(=O)c1c(C)oc2c1cc(NS(=O)(=O)c1ccc(C(C)(C)C)cc1)c1ccccc12,"inconclusive: 29.1 µM [falling, partial curve, poor fit]",–
Cc1ccc2c(c1)-c1c(c(C(=O)N3CCN(c4cc(C)ccc4C)CC3)nn1C)CS2,–,inactive: 4.17%
CCN(CCCNC(=O)c1nn(-c2ccc(C)cc2)c(=O)c2c1c1ccccc1n2C)c1cccc(C)c1,–,inactive: -11.1%
CSc1ncccc1C(=O)Nc1nc2ccc(Oc3ccccc3)cc2s1,–,inactive: -6.75%
COc1cccc(C(=O)Oc2c(Sc3ccc(C)cc3)c(C)nn2C(C)(C)C)c1OC,"inconclusive: 18.4 µM [falling, partial curve, poor fit]",–
CCOc1ccc(NC(=O)c2cc(C)nc3c2c(C)nn3-c2ccc(C)cc2)cc1,–,inactive: 5.19%
CCn1c(O)c(C=NC2CCCC(C)C2C)sc1=S (stereo unspecified),"inconclusive: 18.4 µM [falling, single point]",–
Cn1cc(CN2CCC(C(O)c3cccs3)CC2)c(-c2ccccc2F)n1 (stereo unspecified),"inconclusive: 25.9 µM [falling, partial curve, poor fit]",–
COc1cc(NC(=O)COC(=O)c2n[nH]c3ccccc23)c(C)cc1[N+](=O)[O-],"inconclusive: 9.2 µM [falling, partial curve, poor fit]",–
CCN(CC)c1ccc(/C=N/NC(=O)c2cccc(S(=O)(=O)N3CCOCC3)c2)c(O)c1,"inconclusive: 32.6 µM [falling, partial curve, poor fit]",–
CCCOc1ccccc1NC(=O)c1c(-c2ccccc2)noc1C,–,inactive: 3.32%
CN1c2ccc([N+](=O)[O-])cc2C(C)(C)C12C=Cc1cc(C(=O)O)ccc1O2 (stereo unspecified),"inconclusive: 16.4 µM [falling, partial curve, poor fit]",–
Cc1oc2c(F)c(F)c(F)c(F)c2c1S(=O)(=O)Nc1cccc(C(F)(F)F)c1,"inconclusive: 20.6 µM [falling, single point]",–
Cc1cc(C)c(NC(=O)CSc2nc3ccccc3c3nc(CCn4cncc4C)nn23)c(C)c1,"inconclusive: 29.1 µM [falling, single point]",–
CN1CCN(c2ccc([N+](=O)[O-])c(Sc3nc4ccccc4[nH]3)c2)CC1,"inconclusive: 18.4 µM [falling, single point]",–
O=C(Nc1ccccc1[N+](=O)[O-])c1cccnc1Cl,–,inactive: -6.31%
CC(NC(=O)CSc1nnnn1C1CC1)c1ccccc1Br (stereo unspecified),–,inactive: 12%

# Some of the entries so far, bar-delimited.
Compound | Potency | activity change, negative = cytotoxicity
CC(=O)c1c(C)oc2c1cc(NS(=O)(=O)c1ccc(C(C)(C)C)cc1)c1ccccc12 | inconclusive: 29.1 µM [falling, partial curve, poor fit] | –
CCN(CC)c1ccc(/C=N/NC(=O)c2cccc(S(=O)(=O)N3CCOCC3)c2)c(O)c1 | inconclusive: 32.6 µM [falling, partial curve, poor fit] | –

# (list continues)

Compound,Potency,"activity change, negative = cytotoxicity"
COc1cccc(C(=O)Nc2ncc3c(n2)CC(c2ccc(OC)cc2OC)CC3=O)c1 (stereo unspecified),"inconclusive: 13 µM [falling, partial curve]",–
Cn1c(NC(=O)/C=C\c2ccccc2)cc(=O)n(C)c1=O,–,inactive: 2.94%
O=[N+]([O-])c1ccc(N2CCCC2)nc1,"inconclusive: 20.6 µM [falling, partial curve, poor fit]",–
CCN(N=O)c1ccc(C=C2C=Cc3ccccc32)cc1,"inconclusive: 16.4 µM [falling, partial curve, poor fit]",–
COc1ccc(C(CC(=O)N2CCN(c3ccccc3)CC2)c2c(OC)cc(OC)c3ccc(=O)oc23)cc1 (stereo unspecified),"inconclusive: 32.6 µM [falling, partial curve, poor fit]",–
COc1cc2c(cc1OC)C(=Cc1ccc(N(C)C)cc1)C=C2,"inconclusive: 23.1 µM [falling, partial curve, poor fit]",–
COc1ccccc1CN(Cc1cc2cc(C)ccc2[nH]c1=O)Cc1nnnn1Cc1ccco1,"inconclusive: 23.1 µM [falling, single point]",–
NNC(=O)CN1C(c2ccc(Cl)cc2)=Nc2ccc(Br)cc2C1c1ccccc1 (stereo unspecified),–,inactive: -6.86%
COc1ccc(CCNC(=O)c2nn(C)cc2Cl)cc1,"inconclusive: 6.51 µM [falling, single point]",–
Nc1nn2c(-c3ccccc3)cc(=O)[nH]c2c1N=Nc1ccc(Br)cc1,"inconclusive: 29.1 µM [falling, single point]",–
CC1(C)CCCN(C(=O)c2ccc3c(c2NCCO)C(=O)c2ccccc2C3=O)C1,"inconclusive: 25.9 µM [falling, partial curve, poor fit]",–
O=C1c2cccc3c(N4CCOCC4)c([N+](=O)[O-])cc(c23)C(=O)N1c1cccc2ccccc12,"inconclusive: 29.1 µM [falling, partial curve, poor fit]",–
COc1ccc(Nc2nc(S(=O)(=O)c3ccc(C)cc3)c(Cl)s2)cc1,–,inactive: -0.825%
CC(C)(C)OC(=O)N1CCC(c2c(C(=O)Nc3ccc4c(c3)OCCO4)cnn2-c2ccc(F)cc2F)CC1,"inconclusive: 18.4 µM [falling, partial curve, poor fit]",–
COc1ccc(OC)c(CCNC(=O)c2cc3cccc4c3n2CC(C)S4)c1 (stereo unspecified),–,inactive: -1.41%
CC1CN(S(=O)(=O)c2cccc(C(=O)Nc3ccccc3N3CCCCC3)c2)CC(C)O1 (stereo unspecified),"inconclusive: 23.1 µM [falling, partial curve, poor fit]",–
O=S(=O)(Nc1nc(-c2sccc2Cl)cs1)c1cc(Cl)ccc1Cl,"inconclusive: 18.4 µM [falling, partial curve, poor fit]",–
Nc1c(Br)cc(Br)c2c1C(=O)c1c(cccc1S(=O)(=O)O)C2=O,"inconclusive: 23.1 µM [falling, partial curve, poor fit]",–
COc1ccc(-c2ccc(SCC(=O)Nc3cc(C)on3)nn2)cc1OC,"inconclusive: 6.51 µM [falling, single point]",–
Cc1nc(-c2ccccc2)[nH]c(=O)c1Oc1ccc(Cl)cc1Cl,–,inactive: -8.96%
